These are yes or no findings as the source states them, for the method shown. Some binding calls cover weakened binding; strength is not graded here. Sequences can lack the tags named with a protein.
B1: Anti-cKIT Ab4 (antibody, human IgG1, lambda, V domains shown)
VH: QVQLQQSGPGLVKPSQTLSLTCAISGDSVSTNSAAWNWIRQSPSRGLEWLGRIYYRSQWLNDYAVSVKSRITINPDTSKNQFSLQLNSVTPEDTAVYYCARQLTYPYTVYHKALDVWGQGTLVTVSS
VL: DIELTQPPSVSVSPGQTASITCSGDNLGDQYVSWYQQKPGQAPVLVIYDDTDRPSGIPERFSGSNSGNTATLTISGTQAEDEADYYCQSTDSKSVVFGGGTKLTVLG
notes: Full-length human IgG1, lambda light chain; also called IgG control for J4
B2: Anti-cKIT Ab5 (antibody, human IgG1, lambda, V domains shown)
VH: QVQLVQSGAEVKKPGESLKISCKGSGYSFTNYWIAWVRQMPGKGLEWMGIIYPSNSYTLYSPSFQGQVTISADKSISTAYLQWSSLKASDTAMYYCARVPPGGSISYPAFDHWGQGTLVTVSS
VL: DIELTQPPSVSVSPGQTASITCSGDNIGSIYASWYQQKPGQAPVLVIYRDNKRPSGIPERFSGSNSGNTATLTISGTQAEDEADYYCSVTDMEQHSVFGGGTKLTVLG
notes: Full-length human IgG1, lambda light chain

Biological target: T1, Mouse cKIT ECD, C-terminal 6x His (Sino Biological Inc, Catalog number 50530-M08H) (mouse) (UniProt P05532)
T1 sequence: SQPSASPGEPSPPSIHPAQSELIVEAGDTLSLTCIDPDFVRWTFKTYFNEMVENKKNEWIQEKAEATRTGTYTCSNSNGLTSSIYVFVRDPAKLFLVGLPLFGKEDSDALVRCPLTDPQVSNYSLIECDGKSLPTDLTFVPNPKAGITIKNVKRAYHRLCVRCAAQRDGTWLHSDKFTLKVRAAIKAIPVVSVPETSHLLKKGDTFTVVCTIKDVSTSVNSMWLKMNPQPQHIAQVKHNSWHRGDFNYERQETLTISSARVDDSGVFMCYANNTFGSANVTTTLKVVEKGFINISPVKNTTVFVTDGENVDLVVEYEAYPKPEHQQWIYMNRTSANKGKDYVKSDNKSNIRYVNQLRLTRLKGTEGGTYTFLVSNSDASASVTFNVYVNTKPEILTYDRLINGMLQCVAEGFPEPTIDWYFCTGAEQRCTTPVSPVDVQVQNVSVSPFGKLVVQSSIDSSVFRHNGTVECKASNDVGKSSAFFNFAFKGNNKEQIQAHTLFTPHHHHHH
Experiment: cross reactivity, Table 6 (Example 4: Biacore SPR, antibody captured, cKIT ECD in solution)

Row | Binder | binding
1 | B1 | binds
2 | B2 | binds
